Data published in paper doi:10.1101/2022.06.05.494812.
These are yes or no findings as the source states them, for the method shown. In cells and extracts the contact can be indirect. Some results given as binding are weak or reduced against the parent protein; the word gives no strength. Where a sequence is shown, tags or fusion partners need not be part of it.

Key:
Assay in all cases: co-IP
[1] = biological target: T1, Flag-Baz (Bazooka, Par3) (Drosophila) (UniProt O96782)
T1 sequence: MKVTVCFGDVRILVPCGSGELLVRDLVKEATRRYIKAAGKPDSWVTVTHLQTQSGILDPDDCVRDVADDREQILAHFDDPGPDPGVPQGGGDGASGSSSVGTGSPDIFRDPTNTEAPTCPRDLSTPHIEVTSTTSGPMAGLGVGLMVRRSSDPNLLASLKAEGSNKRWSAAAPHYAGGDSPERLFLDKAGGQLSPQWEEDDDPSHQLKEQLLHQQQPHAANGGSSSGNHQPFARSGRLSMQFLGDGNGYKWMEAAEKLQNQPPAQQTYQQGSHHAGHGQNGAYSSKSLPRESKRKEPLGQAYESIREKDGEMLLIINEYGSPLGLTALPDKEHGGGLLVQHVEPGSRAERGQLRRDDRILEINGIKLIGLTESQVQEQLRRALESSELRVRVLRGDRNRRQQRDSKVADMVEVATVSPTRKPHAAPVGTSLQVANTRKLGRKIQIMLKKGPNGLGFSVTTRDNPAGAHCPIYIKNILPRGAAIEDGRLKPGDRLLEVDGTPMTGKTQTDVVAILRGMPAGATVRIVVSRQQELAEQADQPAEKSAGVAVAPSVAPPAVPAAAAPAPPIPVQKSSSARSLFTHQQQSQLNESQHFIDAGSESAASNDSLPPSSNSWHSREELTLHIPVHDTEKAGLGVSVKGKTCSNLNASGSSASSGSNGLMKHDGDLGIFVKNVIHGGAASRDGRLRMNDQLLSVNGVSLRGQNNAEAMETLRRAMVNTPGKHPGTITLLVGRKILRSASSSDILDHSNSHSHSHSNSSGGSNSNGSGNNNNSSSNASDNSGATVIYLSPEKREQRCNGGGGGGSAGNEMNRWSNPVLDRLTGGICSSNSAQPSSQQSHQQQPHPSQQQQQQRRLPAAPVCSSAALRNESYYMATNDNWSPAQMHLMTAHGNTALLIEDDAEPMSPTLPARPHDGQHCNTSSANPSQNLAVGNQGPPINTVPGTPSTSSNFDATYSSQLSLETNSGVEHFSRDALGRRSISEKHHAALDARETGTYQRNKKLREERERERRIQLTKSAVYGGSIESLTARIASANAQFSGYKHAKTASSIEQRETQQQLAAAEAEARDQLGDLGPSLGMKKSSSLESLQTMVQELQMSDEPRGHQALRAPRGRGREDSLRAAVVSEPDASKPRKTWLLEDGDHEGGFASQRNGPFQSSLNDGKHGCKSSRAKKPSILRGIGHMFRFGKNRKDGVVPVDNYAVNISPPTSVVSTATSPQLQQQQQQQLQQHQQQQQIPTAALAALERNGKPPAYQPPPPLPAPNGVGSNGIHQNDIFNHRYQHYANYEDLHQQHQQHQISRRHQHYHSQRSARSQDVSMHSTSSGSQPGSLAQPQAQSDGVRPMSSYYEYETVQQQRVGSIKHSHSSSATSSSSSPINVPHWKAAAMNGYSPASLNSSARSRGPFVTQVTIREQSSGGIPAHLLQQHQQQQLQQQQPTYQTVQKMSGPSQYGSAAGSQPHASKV

[2] = biological target: T2, Flag-Insc (Inscuteable) (Drosophila) (UniProt Q24367)
T2 sequence: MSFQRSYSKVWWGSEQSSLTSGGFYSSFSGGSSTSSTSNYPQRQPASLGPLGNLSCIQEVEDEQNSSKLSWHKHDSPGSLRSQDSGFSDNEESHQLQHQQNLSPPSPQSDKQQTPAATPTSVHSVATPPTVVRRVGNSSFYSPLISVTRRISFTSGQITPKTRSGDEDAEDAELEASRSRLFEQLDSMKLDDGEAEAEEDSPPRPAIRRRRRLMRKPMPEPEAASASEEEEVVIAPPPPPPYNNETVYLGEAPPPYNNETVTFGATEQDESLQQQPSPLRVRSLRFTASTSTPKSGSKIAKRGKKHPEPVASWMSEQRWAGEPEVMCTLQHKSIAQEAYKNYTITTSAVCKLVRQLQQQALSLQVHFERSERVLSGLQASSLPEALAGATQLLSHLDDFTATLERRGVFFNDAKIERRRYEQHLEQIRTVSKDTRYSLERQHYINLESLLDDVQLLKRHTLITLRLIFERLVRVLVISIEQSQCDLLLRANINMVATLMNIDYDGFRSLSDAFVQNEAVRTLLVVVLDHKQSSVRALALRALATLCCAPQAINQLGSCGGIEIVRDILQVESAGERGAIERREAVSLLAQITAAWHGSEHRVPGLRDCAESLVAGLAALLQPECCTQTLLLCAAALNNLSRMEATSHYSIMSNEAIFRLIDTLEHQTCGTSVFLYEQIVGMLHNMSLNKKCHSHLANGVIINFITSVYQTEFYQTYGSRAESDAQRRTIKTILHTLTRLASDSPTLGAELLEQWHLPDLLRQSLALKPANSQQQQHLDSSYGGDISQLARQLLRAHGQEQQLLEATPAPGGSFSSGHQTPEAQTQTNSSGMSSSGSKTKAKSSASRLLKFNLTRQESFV

[3] = biological target: T3, Myc-tagged Baz (Bazooka, Par3) (Drosophila) (UniProt O96782)
T3 sequence: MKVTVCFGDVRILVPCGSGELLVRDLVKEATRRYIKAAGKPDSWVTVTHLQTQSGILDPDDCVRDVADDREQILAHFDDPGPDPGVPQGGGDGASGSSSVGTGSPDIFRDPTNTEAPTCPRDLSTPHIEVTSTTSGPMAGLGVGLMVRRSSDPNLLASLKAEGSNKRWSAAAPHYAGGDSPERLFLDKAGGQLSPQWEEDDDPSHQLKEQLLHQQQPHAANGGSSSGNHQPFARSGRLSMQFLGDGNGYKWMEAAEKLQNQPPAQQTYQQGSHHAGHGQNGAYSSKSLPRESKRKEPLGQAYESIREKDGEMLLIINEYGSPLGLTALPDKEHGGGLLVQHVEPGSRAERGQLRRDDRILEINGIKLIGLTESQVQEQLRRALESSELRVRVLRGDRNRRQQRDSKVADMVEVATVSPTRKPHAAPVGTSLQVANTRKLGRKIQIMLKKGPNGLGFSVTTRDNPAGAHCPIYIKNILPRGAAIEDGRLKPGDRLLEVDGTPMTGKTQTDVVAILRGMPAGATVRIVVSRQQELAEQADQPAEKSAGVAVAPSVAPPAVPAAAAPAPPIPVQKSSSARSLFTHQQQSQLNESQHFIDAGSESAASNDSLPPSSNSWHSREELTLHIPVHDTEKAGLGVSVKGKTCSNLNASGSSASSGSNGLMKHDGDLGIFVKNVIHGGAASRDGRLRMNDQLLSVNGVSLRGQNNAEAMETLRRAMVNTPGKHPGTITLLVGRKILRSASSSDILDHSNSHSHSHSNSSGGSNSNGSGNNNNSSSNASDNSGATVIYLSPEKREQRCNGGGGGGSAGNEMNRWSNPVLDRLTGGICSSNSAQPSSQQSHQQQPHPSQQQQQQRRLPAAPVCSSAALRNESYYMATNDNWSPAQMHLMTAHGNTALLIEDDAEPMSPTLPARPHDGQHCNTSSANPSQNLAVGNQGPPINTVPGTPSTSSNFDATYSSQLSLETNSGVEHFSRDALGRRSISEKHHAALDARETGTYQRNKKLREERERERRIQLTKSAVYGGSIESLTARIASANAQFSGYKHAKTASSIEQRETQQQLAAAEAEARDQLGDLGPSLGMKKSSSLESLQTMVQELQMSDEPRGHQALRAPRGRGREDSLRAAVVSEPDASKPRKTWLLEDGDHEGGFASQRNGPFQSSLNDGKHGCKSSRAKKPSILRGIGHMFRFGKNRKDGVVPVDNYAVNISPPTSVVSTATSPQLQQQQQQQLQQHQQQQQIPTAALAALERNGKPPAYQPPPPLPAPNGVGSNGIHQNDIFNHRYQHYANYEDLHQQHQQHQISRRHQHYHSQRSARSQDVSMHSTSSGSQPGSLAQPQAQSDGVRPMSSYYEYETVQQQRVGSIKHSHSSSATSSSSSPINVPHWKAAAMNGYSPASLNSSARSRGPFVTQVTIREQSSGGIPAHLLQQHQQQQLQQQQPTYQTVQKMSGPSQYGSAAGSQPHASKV

Measured: binding

B1: armadillo (arm)/β-catenin, expressed in S2 cells (protein, UniProt P18824 1-843)
chain: MSYMPAQNRTMSHNNQYNPPDLPPMVSAKEQTLMWQQNSYLGDSGIHSGAVTQVPSLSGKEDEEMEGDPLMFDLDTGFPQNFTQDQVDDMNQQLSQTRSQRVRAAMFPETLEEGIEIPSTQFDPQQPTAVQRLSEPSQMLKHAVVNLINYQDDAELATRAIPELIKLLNDEDQVVVSQAAMMVHQLSKKEASRHAIMNSPQMVAALVRAISNSNDLESTKAAVGTLHNLSHHRQGLLAIFKSGGIPALVKLLSSPVESVLFYAITTLHNLLLHQDGSKMAVRLAGGLQKMVTLLQRNNVKFLAIVTDCLQILAYGNQESKLIILASGGPNELVRIMRSYDYEKLLWTTSRVLKVLSVCSSNKPAIVDAGGMQALAMHLGNMSPRLVQNCLWTLRNLSDAATKVEGLEALLQSLVQVLGSTDVNVVTCAAGILSNLTCNNQRNKATVCQVGGVDALVRTIINAGDREEITEPAVCALRHLTSRHVDSELAQNAVRLNYGLSVIVKLLHPPSRWPLIKAVIGLIRNLALCPANHAPLREHGAIHHLVRLLMRAFQDTERQRSSIATTGSQQPSAYADGVRMEEIVEGTVGALHILARESHNRALIRQQSVIPIFVRLLFNEIENIQRVAAGVLCELAADKEGAEIIEQEGATGPLTDLLHSRNEGVATYAAAVLFRMSEDKPQDYKKRLSIELTNSLLREDNNIWANADLGMGPDLQDMLGPEEAYEGLYGQGPPSVHSSHGGRAFHQQGYDTLPIDSMQGLEISSPVGGGGAGGAPGNGGAVGGASGGGGNIGAIPPSGAPTSPYSMDMDVGEIDAGALNFDLDAMPTPPNDNNNLAAWYDTDC
binds: all assays above
